Results published in publication PMC6722097.
These are yes or no findings as the source states them, for the method shown. Binding seen in cells or lysates may run through a third protein. Some results given as binding are weak or reduced against the parent protein; the word gives no strength.

Amino acid sequences for entries named in this document (tags omitted).
UniProt P35570: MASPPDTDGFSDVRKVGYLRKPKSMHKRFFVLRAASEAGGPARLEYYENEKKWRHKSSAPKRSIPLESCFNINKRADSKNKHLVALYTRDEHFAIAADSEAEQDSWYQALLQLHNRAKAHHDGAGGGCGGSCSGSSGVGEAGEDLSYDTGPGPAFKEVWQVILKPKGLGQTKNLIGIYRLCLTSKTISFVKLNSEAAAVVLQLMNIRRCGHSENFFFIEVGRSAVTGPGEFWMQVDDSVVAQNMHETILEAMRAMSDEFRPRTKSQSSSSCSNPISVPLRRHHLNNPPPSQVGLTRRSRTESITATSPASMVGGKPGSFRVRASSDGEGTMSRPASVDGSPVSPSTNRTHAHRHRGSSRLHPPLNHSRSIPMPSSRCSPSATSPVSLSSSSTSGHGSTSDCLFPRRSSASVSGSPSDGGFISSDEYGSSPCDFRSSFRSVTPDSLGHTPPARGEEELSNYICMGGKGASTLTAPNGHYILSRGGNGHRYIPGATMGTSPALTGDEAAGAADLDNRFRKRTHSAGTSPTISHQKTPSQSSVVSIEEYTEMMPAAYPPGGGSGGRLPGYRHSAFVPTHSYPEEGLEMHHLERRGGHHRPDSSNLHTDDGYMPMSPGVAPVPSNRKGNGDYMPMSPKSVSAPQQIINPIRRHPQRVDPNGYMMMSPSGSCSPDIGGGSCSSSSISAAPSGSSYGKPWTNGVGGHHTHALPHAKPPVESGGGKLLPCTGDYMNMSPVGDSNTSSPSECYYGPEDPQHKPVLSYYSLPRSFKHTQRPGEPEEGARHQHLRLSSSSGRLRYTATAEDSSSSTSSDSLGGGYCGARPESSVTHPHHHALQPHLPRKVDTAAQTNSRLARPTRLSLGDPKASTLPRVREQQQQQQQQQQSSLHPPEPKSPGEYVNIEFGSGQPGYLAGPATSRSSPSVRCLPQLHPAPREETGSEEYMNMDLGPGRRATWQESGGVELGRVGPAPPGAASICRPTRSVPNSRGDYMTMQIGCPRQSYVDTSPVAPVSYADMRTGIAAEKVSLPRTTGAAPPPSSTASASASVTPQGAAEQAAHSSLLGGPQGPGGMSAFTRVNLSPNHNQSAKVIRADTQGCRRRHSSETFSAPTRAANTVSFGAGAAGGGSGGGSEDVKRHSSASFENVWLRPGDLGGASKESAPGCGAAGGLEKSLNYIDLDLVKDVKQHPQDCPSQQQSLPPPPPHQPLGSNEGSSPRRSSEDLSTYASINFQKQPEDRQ

Columns and labels:
[1] = biological target: phosphorylated PDGFRβ, endogenous in normal human diploid fibroblast clone cells (human (endogenous in NHDF)) (UniProt P09619); assay: co-IP; NHDF clone cells (NHDFWT-1, NHDFWT-2, NHDFM-1) serum-starved, treated 5 min with insulin (100 ng/ml) or 10 min with PDGF (8 ng/ml), washed, chased 0, 1, 2 or 4 h, lysed; immunoprecipitation and Western blot (antibodies not told in the text shown; Supplementary Fig. 7)
[2] = biological target: phosphorylated IRS-1, endogenous in PC12m3 clone cells (rat (endogenous in PC12m3)) (UniProt P35570); assay: co-IP; serum-starved PC12m3 clone cells (PC12m3p85βWT2, M1, M2) treated with insulin (100 ng/ml), ligand removed, chased 1 or 2 h; Nonidet P-40 lysates precipitated with an anti-IRS-1 antibody on G-Sepharose beads; blot with a p85α antibody

Row | binding [1] | binding [2] | Substance
1 | binds | – | p85α protein, endogenous in normal human diploid fibroblast clone cells (from UniProt P27986 1-724)
2 | – | binds | p85α regulatory subunit of PI3K, endogenous in PC12m3 clone cells (from UniProt Q63787-1 1-724)
